PubChem BioAssay AID2417 (National Center for Advancing Translational Sciences (NCATS), 2010)
In all, about 140,000 compounds went through this assay and about 4,300 (3.1%) were called active. The inconclusive results got no clear call from the source; some entries with a clear call stand among them for comparison.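 Rule for the calls: active = readout at or below -70, meaning at least 70% loss of cells showing the perinucleolar compartment, a nuclear body marking cancer cells; inconclusive = readout between -30 and a set limit; inactive = the rest.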

Experiment: High Content Assay for Compounds that inhibit the Assembly of the Perinucleolar Compartment;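 note: plate controls were DMSO wells for no effect and camptothecin positive control wells for full effect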
Conditions: PC3M PTB-GFP, PNC prevalence imaging, 16 h; at 10 µM; stronger effect = lower value
How it was run: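 Compounds are pinned in duplicate onto adhered PC3M cells stably expressing GFP-tagged PTB and incubated 16 h at 37 C. Cells are then fixed, nuclei stained with Hoechst, and PNC-positive cells counted.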

| Structure (SMILES) | activity change (PNC), negative = inhibition |
| --- | --- |
| O=c1[nH]c(=S)n(Cc2ccc(F)cc2)c(O)c1/C=N/N1CCCCC1 | inconclusive: -37.2% |
| Cc1ccc(-n2nc(C)c(C3C(C#N)=C(N)Oc4c3c(=O)oc3ccccc43)c2Cl)cc1 (configuration not stated) | inactive: 7.93% |
| CCOC(=O)c1ccc(NC(=O)C2C3C=CC(O3)C2C(=O)O)cc1 (configuration not stated) | active: -91% |
| CCOC(=O)c1ccc(N2C(=O)CC(N3CC=C(c4ccc(F)cc4)CC3)C2=O)cc1 (configuration not stated) | inactive: -20.7% |
| Cn1cccc1/C=C1/C(=O)NC(=O)N(Cc2ccccc2)C1=O | inactive: 0.695% |
| CN(C)C(=O)Oc1cc(=O)n2c3c(cccc13)CCC2 | inactive: 23.5% |
| COc1ccc(CN2CCN(Cc3ccccc3)CC2)c(OC)c1 | inactive: 15.8% |
| Cc1ccc(N2C(=O)NC(=O)/C(=C/c3cnn(-c4ccc(C)cc4)c3)C2=O)cc1 | inconclusive: -33.6% |
| O=c1[nH]c(CN2CC=C(c3ccccc3)CC2)nc2cc(C(F)(F)F)ccc12 | inconclusive: -43.2% |
| CC(=NCCN1CCCCC1)c1c(O)n(-c2ccc(Cl)cc2)c(=O)[nH]c1=O | inconclusive: -38.9% |
| OCCN1C2CCC1CC(O)(c1ccc(F)cc1)C2 (configuration not stated) | inactive: -0.908% |
| Fc1ccccc1N1CCN(Cc2ccc3c(c2)OCO3)CC1 | inconclusive: -30.5% |
| Nc1ccc2c(c1)Cc1ccccc1-2 | inconclusive: -35.3% |
| COc1cc2c(cc1OC)-c1c(OC)c(OC)c(OC)c3ccnc(c13)C2=O | active: -101% |
| Nc1ccc(Cl)cc1C(=O)c1ccccc1Cl | inconclusive: -34.5% |
| Fc1ccc(C2NCCc3[nH]cnc32)cc1 (configuration not stated) | inconclusive: -39.4% |
| c1ccc(C2NCc3ccccc3-n3cccc32)cc1 (configuration not stated) | inconclusive: -48.3% |
| Cc1nn(C2CCOC(C)(C)C2)c2c1C(c1ccc(OC(C)C)cc1)SCC(=O)N2 (configuration not stated) | inactive: -7.17% |
| CCc1ccc(CNCCc2ccc(F)cc2)cc1 | inconclusive: -46.3% |
| CCCCCCC[n+]1ccc(-c2cc[n+](CCCCCCC)cc2)cc1 | inconclusive: -57.3% |
| COc1cc(/C=C/[N+](=O)[O-])ccc1O | active: -83.7% |
| COc1ccc(OC)c2c1CCC1NCCOC21 (configuration not stated) | inconclusive: -37.8% |
| CC(=O)Nc1ccccc1OC(=O)N(C)C | inactive: -5.32% |
| O=C(Cn1cnc2ccccc2c1=O)NCC(=O)N1CCC2(CC1)OCCO2 | inconclusive: -35.2% |
| CCOC(=O)CN1C(=O)C2(C(C#N)=C(N)Oc3ccccc32)C(C(=O)OC)=C1C (configuration not stated) | inconclusive: -43.4% |
| Cc1cccc(N2CCc3c2nc2ccccc2c3N)c1 | inconclusive: -51.2% |

| Structure (SMILES) | activity change (PNC), negative = inhibition |
| --- | --- |
| Cc1cccc(OP(=O)(Nc2cccnc2)Oc2cccc(C)c2)c1 | inconclusive: -72.5% |
| OC1CCCCC1N1CCC(c2ccccc2)CC1 (configuration not stated) | inconclusive: -33.6% |
| CCCCn1c(NC(=O)c2ccco2)c(C(=O)OCC)c2nc3ccccc3nc21 | inactive: 31.5% |
| Cc1ccc(Cn2c(C)c3cnn(CC(=O)N4CCC5(CC4)OCCO5)c(=O)c3c2C)cc1 | active: -100% |
| CCC(C)N1C(=O)NC(=O)C2(Cc3cc(C)ccc3N(C)C2)C1=O (configuration not stated) | inconclusive: -35.8% |
| C=CCN1C(=O)NC(=O)C(Cc2ccc(OC)c(OC)c2)C1=O (configuration not stated) | inactive: -18.7% |
| O=Cc1cn(Cc2cccc([N+](=O)[O-])c2)c2ccccc12 | inconclusive: -35.5% |
| CCC(=NCCc1c[nH]c2ccccc12)c1c(O)n(-c2ccc(C)cc2)c(=O)[nH]c1=O | inactive: -5.65% |
| CN(C)C(Cc1ccc(C#N)cc1)C(=O)c1ccccc1 (configuration not stated) | inconclusive: -47.3% |
| O=[N+]([O-])c1ccc(Nc2ccccc2)cc1 | inactive: 10.3% |
| O=C1NC(=O)N(Cc2ccco2)C(=O)/C1=C/c1ccc(-c2cccc([N+](=O)[O-])c2)o1 | inactive: 18.6% |
| O=C(c1ccccc1F)c1cn(Cc2ccccc2)c2ccccc12 | inactive: 8.42% |
| N=Cc1c(O)n(-c2cccc(Cl)c2)c(=O)[nH]c1=O | inconclusive: -48.5% |
| Cc1cc(N)n(C2CCN(C)CC2)n1 | inactive: -0.595% |
| CCOC(=O)[C@@]1(C#N)[C@@H]2C=CC(C(N)=O)=CN2[C@@H](C(N)=O)[C@@H]1c1cccc(Cl)c1 | inconclusive: -31.7% |
| CN1CCN(Cc2nnc3n2-c2ccc(Cl)cc2C(c2ccccc2)=NC3)CC1 | inactive: -23% |
| CN1CCN(Cc2ccccc2Sc2ccccc2)CC1 | active: -86% |
| CCOC(=O)c1nc2ccccc2c(=O)n1-c1ccc(C)cc1C | inconclusive: -32.9% |
| CN(CC(=O)Nc1ccccc1-c1ccccc1)C1CCCCC1 | inconclusive: -30% |
| CC1CN(O)C2CCc3nonc3C12O (configuration not stated) | inconclusive: -49.9% |
| Cc1cccc(C)c1NC(=O)c1cccn(Cc2ccc3c(c2)OC(F)(F)O3)c1=O | inconclusive: -50.5% |
| CCOC(=O)c1c(-c2ccc(OC)cc2)oc2ccc(OC(=O)N(C)C)cc12 | inconclusive: -73% |
| CC(ON1CC1(C(F)(F)F)C(F)(F)F)(C(N)=O)C(N)=O (configuration not stated) | active: -92.8% |
| Cc1cc(C)[n+](C2C3CC4CC(C3)CC2C4)o1 (configuration not stated) | inconclusive: -32% |
| CC(C)c1ccc(N2C(=O)NC(=O)/C(=C/c3cnc(-c4ccccc4)nc3)C2=O)cc1 | inactive: -25.6% |
| CCC(=Nc1cc(OC)ccc1OC)c1c(O)[nH]c(=O)[nH]c1=O | inactive: 48.3% |

Some of these compounds in order of length of the SMILES, smallest number first.

| Structure (SMILES) | activity change (PNC), negative = inhibition |
| --- | --- |
| OC1CCCCC1N1CCC(c2ccccc2)CC1 (configuration not stated) | inconclusive: -33.6% |
| CN1CCN(Cc2ccccc2Sc2ccccc2)CC1 | active: -86% |
| Cc1cccc(OP(=O)(Nc2cccnc2)Oc2cccc(C)c2)c1 | inconclusive: -72.5% |

Continued.

| Structure (SMILES) | activity change (PNC), negative = inhibition |
| --- | --- |
| CSc1ccc(C(=O)C(C)(C)N2CCOCC2)cc1 | inconclusive: -65% |
| NC(=O)Nc1ccc(C(=O)OCC(=O)Nc2ccc(Cl)cc2C(=O)c2ccccc2)cc1 | inactive: -28.9% |
| CC(=O)Nc1ccccc1C(=O)OCC(=O)c1ccc2ccccc2c1 | inconclusive: -52.9% |
| Cc1ccc(-n2nc(C)cc2NC(=O)COc2cc(C)cc3oc(=O)c4c(c23)CCC4)cc1 | inconclusive: -34.7% |
| CC(C(=O)Nc1ccc(Br)cc1C(=O)c1ccccc1)N1CCOCC1 (configuration not stated) | inconclusive: -76.5% |
| CC(C)Oc1cccc(NC(=O)c2cccn(Cc3ccc4c(c3)OC(F)(F)O4)c2=O)c1 | inconclusive: -67.8% |
| O=c1[nH]c(=O)n(Cc2ccco2)c(O)c1C=NCCN1CCOCC1 | inactive: 15.4% |
| Cn1c(O)c(C=NC2C(=O)C3(C)CCC2C3(C)C)c(=O)n(C)c1=O (configuration not stated) | inconclusive: -33.5% |
| COc1ccccc1CC1C(=O)C2CCN1CC2 (configuration not stated) | inconclusive: -41.8% |
| CCOC(=O)/C(CCCN(CC)CC)=N\O | inconclusive: -30.6% |
| Cc1cc(S(=O)(=O)NCC(C)C)ccc1OCC(=O)N1CCN(Cc2ccccc2)CC1 | inactive: 21.1% |
| O=C1NC(=O)N(CCC2=CCCCC2)C(=O)/C1=C/c1ccc(O)cc1 | inactive: -14.8% |
| CC[n+]1c(SC)ccc2cc(OC)ccc21 | inconclusive: -32.6% |
| COC(=O)C1=Nc2ccccc2/C1=C\c1c(O)n(-c2ccc(OC)cc2)c(=O)[nH]c1=O | inactive: 67% |
| COc1ccc(N=Cc2c(O)n(CC3CCCO3)c(=O)[nH]c2=O)cc1 (configuration not stated) | inactive: 47.1% |
| Cc1ccc(-n2c(C)cc(/C=C3/C(=O)NC(=O)N(C)C3=O)c2C)cc1 | active: -84.6% |
| C/C(=N\Nc1ccccc1)c1c(O)n(Cc2ccccc2)c(=O)[nH]c1=O | inactive: 29.8% |
| CCCCCCn1c(O)c(C=Nc2c(C)n(C)n(-c3ccccc3)c2=O)c(=O)[nH]c1=O | inactive: -9.15% |
| O=C1NC(c2cccnc2)Nc2sc3c(c21)CCCC3 (configuration not stated) | active: -100% |
| CCOC(=O)c1c(C)n(Cc2ccccc2)c2ccc(OCC(O)CN3C(=O)CNC3=O)cc12 (configuration not stated) | inconclusive: -43.6% |
| O=C(N/N=C/c1c(O)n(CCC2=CCCCC2)c(=O)[nH]c1=O)c1ccccc1 | inconclusive: -36.5% |
| CCCCCCN=C(CC)c1c(O)n(CCCC)c(=O)[nH]c1=O | inconclusive: -38.1% |
| C=CCOc1ccc(CC2C(=O)N(C)C(=O)N(C)C2=O)cc1 | inactive: -16.2% |
| Cc1cccc(N2C(=O)/C(=C/N3CCN(C(=O)c4ccco4)CC3)C(=O)NC2=S)c1 | inconclusive: -63% |
| C[C@H]1CCCC(=O)CCC/C=C/c2cc(O)cc(O)c2C(=O)O1 | inconclusive: -47.3% |
